Data reported in patent publication US20050266513A1.
Results are given in words; binding and its absence hold for the method and conditions named. For some assays here: In cells and extracts the contact can be indirect. Some binding calls cover weakened binding; strength is not graded here.

Chains of the proteins cited; added tags and fusions are not shown. Lines headed by an entry give the natural chain unless they say otherwise; changes in a name come on top.
UniProt Q7Z6Z7: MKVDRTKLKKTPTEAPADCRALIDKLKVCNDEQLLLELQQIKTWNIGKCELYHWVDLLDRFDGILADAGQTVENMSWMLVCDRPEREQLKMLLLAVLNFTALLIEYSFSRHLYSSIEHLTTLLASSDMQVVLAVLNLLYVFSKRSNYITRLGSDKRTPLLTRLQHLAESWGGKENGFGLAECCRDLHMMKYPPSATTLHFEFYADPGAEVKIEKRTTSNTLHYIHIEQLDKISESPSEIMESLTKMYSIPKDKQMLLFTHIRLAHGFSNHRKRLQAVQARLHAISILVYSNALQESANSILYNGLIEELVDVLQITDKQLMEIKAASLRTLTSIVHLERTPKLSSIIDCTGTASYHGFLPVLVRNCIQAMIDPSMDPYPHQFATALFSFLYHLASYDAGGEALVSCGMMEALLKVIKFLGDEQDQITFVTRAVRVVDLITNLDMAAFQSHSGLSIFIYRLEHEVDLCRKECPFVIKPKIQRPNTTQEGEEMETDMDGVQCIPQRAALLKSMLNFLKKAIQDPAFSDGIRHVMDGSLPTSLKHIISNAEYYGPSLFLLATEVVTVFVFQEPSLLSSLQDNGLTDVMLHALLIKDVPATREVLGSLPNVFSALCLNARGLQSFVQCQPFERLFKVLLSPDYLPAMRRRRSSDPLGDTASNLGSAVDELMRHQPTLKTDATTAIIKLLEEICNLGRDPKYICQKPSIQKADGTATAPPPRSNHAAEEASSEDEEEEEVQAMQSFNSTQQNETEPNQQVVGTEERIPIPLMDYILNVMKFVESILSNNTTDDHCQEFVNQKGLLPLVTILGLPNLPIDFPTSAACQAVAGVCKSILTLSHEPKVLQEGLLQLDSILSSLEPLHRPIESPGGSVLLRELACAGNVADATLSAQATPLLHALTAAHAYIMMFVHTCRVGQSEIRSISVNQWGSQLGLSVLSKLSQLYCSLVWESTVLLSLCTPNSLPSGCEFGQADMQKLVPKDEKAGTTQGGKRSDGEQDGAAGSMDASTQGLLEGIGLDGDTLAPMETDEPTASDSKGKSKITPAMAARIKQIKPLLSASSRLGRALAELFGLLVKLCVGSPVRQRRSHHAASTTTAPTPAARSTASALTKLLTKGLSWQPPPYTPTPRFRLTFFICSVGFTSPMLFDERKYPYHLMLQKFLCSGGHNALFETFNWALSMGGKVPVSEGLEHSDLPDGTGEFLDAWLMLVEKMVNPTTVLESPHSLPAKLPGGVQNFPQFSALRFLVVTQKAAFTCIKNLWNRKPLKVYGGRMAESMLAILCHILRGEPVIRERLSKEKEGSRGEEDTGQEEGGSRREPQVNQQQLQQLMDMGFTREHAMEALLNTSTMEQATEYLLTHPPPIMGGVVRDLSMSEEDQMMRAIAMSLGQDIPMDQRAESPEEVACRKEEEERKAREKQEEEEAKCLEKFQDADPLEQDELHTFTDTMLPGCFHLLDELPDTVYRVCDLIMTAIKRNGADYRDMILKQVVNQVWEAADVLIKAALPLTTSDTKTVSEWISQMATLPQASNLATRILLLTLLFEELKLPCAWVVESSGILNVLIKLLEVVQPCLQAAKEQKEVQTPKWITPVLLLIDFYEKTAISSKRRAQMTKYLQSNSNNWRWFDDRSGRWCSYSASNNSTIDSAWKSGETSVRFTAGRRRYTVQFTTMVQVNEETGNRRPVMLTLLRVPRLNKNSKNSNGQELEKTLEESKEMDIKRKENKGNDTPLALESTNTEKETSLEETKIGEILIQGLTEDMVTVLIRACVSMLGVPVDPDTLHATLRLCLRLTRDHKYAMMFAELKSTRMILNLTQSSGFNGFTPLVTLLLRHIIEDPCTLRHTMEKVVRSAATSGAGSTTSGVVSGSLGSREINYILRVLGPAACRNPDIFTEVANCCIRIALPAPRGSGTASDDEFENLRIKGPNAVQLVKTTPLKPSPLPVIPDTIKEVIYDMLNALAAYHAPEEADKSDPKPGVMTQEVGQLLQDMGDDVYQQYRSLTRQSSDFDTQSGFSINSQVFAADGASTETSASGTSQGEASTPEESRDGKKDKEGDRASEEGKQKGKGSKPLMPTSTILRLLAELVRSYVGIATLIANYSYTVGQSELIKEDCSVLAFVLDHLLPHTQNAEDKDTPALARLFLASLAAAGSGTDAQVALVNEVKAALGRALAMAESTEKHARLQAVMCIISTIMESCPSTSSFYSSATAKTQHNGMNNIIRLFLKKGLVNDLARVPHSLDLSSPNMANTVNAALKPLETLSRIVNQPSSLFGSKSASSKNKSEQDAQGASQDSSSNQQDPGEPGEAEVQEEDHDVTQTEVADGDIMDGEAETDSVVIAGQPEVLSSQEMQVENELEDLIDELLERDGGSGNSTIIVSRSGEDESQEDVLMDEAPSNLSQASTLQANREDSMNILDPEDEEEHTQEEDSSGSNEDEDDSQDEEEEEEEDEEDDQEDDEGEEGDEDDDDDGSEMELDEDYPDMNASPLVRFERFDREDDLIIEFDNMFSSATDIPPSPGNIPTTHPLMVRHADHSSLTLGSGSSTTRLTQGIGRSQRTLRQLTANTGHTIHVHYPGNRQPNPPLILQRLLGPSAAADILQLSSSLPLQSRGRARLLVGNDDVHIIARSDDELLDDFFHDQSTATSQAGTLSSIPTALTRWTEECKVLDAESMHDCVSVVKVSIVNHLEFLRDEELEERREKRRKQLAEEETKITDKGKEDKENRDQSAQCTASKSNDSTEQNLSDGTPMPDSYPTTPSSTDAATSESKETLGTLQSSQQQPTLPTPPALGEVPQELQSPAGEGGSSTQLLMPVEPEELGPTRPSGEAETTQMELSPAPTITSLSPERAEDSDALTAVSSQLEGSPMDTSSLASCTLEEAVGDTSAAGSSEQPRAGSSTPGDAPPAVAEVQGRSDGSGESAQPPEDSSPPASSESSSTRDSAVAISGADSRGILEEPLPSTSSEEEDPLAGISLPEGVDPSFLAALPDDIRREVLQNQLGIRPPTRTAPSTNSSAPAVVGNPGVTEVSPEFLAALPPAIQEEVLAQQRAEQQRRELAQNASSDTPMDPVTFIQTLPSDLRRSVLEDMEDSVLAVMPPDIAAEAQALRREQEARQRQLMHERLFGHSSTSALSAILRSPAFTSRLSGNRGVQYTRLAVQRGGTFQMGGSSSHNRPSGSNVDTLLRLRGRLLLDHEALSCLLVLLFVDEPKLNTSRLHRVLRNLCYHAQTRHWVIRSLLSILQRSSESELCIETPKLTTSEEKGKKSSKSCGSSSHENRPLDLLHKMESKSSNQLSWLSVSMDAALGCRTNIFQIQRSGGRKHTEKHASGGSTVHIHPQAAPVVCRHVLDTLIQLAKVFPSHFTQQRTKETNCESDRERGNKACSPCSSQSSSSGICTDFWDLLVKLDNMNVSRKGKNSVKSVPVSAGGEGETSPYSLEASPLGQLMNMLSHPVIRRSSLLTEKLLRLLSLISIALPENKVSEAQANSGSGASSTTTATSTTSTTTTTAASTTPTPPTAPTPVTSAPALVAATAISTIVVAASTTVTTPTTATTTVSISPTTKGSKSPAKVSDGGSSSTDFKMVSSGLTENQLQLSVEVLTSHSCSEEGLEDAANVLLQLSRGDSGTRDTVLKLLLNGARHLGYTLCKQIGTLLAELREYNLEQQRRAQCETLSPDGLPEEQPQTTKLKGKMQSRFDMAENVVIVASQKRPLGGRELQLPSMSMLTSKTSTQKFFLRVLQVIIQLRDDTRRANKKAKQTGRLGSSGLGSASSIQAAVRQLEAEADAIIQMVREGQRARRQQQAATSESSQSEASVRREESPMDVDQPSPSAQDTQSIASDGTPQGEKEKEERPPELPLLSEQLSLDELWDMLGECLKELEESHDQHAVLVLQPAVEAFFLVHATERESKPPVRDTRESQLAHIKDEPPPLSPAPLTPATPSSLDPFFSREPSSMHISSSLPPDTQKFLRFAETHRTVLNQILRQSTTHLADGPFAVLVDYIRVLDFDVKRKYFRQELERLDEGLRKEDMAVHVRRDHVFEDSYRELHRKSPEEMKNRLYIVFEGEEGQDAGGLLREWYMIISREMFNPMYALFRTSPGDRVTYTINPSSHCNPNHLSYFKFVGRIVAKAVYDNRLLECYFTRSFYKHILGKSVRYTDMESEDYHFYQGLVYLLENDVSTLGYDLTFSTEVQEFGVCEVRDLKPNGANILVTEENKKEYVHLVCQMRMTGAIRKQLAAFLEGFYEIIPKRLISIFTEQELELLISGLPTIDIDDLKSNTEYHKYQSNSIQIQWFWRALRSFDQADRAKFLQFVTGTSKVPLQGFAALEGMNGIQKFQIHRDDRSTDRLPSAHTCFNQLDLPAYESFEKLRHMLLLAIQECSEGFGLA

Key:
[1] = target: HectH9 (full-length HECT-domain E3-ligase) (human) (UniProt Q7Z6Z7); assay: figure description
[2] = target: HectH9 (full-length HECT-domain E3-ligase) (human) (UniProt Q7Z6Z7); assay: co-immunoprecipitation from transfected HeLa cells
[3] = target: HectH9 (full-length HECT-domain E3-ligase) (human) (UniProt Q7Z6Z7); assay: co-immunoprecipitation from transiently transfected HeLa cells, anti-Miz1 blot
[4] = target: HectH9 (full-length HECT-domain E3-ligase) (human) (UniProt Q7Z6Z7); assay: in vitro translated 35S-labelled proteins mixed, anti-HectH9 immunoprecipitation
[5] = target: HectH9 (full-length HECT-domain E3-ligase) (human) (UniProt Q7Z6Z7); assay: in vitro translated 35S-labelled proteins mixed, immunoprecipitation, autoradiogram

Measured: binding

B1: Miz1 (protein, UniProt Q13105 1-803, looked up)
chain: MDFPQHSQHVLEQLNQQRQLGLLCDCTFVVDGVHFKAHKAVLAACSEYFKMLFVDQKDVVHLDISNAAGLGQVLEFMYTAKLSLSPENVDDVLAVATFLQMQDIITACHALKSLAEPATSPGGNAEALATEGGDKRAKEEKVATSTLSRLEQAGRSTPIGPSRDLKEERGGQAQSAASGAEQTEKADAPREPPPVELKPDPTSGMAAAEAEAALSESSEQEMEVEPARKGEEEQKEQEEQEEEGAGPAEVKEEGSQLENGEAPEENENEESAGTDSGQELGSEARGLRSGTYGDRTESKAYGSVIHKCEDCGKEFTHTGNFKRHIRIHTGEKPFSCRECSKAFSDPAACKAHEKTHSPLKPYGCEECGKSYRLISLLNLHKKRHSGEARYRCEDCGKLFTTSGNLKRHQLVHSGEKPYQCDYCGRSFSDPTSKMRHLETHDTDKEHKCPHCDKKFNQVGNLKAHLKIHIADGPLKCRECGKQFTTSGNLKRHLRIHSGEKPYVCIHCQRQFADPGALQRHVRIHTGEKPCQCVMCGKAFTQASSLIAHVRQHTGEKPYVCERCGKRFVQSSQLANHIRHHDNIRPHKCSVCSKAFVNVGDLSKHIIIHTGEKPYLCDKCGRGFNRVDNLRSHVKTVHQGKAGIKILEPEEGSEVSVVTVDDMVTLATEALAATAVTQLTVVPVGAAVTADETEVLKAEISKAVKQVQEEDPNTHILYACDSCGDKFLDANSLAQHVRIHTAQALVMFQTDADFYQQYGPGGTWPAGQVLQAGELVFRPRDGAEGQPALAETSPTAPECPPPAE
binds: [1] | [2] | [3] | [4] | [5]
